For assay [1], the target named is T1, transmembrane 4 L six family member 1 (TM4SF1) (UniProt P30408).
T1 sequence: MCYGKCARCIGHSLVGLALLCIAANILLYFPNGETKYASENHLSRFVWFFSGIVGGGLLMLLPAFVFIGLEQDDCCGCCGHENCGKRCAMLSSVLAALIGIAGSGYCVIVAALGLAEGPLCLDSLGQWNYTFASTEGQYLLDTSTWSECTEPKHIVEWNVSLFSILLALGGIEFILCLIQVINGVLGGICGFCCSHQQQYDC
Put plainly: co-IP; coimmunoprecipitation of TM4SF1 and DDR1 with monoclonal antibodies against ECL1 of TM4SF1 (Fig. 1t; lysates in Supplementary Fig. S6d); three independent experiments.

Amino acid sequences for entries named in this document (tags omitted). Residues count along the entry.
UniProt Q08345, residues 19-913: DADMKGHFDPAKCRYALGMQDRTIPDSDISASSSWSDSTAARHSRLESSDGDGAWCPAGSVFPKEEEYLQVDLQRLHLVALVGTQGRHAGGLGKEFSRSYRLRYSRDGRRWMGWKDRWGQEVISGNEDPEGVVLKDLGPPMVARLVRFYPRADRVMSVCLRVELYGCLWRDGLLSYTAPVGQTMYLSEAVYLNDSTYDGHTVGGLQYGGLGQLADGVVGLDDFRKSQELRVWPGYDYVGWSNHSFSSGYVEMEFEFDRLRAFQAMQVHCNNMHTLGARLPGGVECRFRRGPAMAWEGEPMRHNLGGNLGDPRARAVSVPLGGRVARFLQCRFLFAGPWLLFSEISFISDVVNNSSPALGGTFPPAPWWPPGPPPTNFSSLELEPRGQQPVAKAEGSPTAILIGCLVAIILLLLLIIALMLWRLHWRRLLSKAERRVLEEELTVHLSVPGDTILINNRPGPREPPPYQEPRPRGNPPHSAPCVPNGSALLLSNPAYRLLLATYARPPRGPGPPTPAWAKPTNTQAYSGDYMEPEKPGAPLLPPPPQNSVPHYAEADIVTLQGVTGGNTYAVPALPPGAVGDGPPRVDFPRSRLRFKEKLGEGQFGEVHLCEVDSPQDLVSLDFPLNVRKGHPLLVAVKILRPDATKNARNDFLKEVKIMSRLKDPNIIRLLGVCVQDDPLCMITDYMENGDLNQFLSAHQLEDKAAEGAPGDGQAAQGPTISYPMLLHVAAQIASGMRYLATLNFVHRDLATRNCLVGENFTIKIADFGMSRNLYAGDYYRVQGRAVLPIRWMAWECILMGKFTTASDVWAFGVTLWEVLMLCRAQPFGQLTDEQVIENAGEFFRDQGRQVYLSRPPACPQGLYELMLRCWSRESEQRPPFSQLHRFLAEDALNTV

Assay [2] addresses T1, transmembrane 4 L six family member 1 (TM4SF1). Put plainly: co-IP; coimmunoprecipitation assays to identify the interaction domain of TM4SF1 (Supplementary Fig. 6a, b); cells and constructs not shown.

No constants are given. Whether binding was seen depends on the method and setting. Binding seen in cells or lysates may run through a third protein. Some entries that bind do so weakly or less than the wild type.

Take “discoidin domain receptor tyrosine kinase 1 (DDR1) (from UniProt Q08345 19-913)”: the binding result in assay [1] and in assay [2] was “binds” throughout.

For the origin of these results see article PMC9561108.
